No constants are given. Whether binding was seen depends on the method and setting. Binding can be weak; no strength is given.
B1: AX9 IgG2 (antibody)
heavy: EVQLLESGGGLVQPGGSLRLSCKASGYTFSSYWMHWVRQAPGKGLEWIGRIDPYNGGTKYNEKFKGKATISRDNSKNTLYLQMNSLRAEDTAVYYCARYGYYLGSYAMDYWGQGTLVTVSSASTKGPSVFPLAPCSRSTSESTAALGCLVKDYFPEPVTVSWNSGALTSGVHTFPAVLQSSGLYSLSSVVTVPSSNFGTQTYTCNVDHKPSNTKVDKTVERKCCVECPPCPAPPVAGPSVFLFPPKPKDTLMISRTPEVTCVVVDVSHEDPEVQFNWYVDGVEVHNAKTKPREEQFNSTFRVVSVLTVVHQDWLNGKEYKCKVSNKGLPAPIEKTISKTKGQPREPQVYTLPPSREEMTKNQVSLTCLVKGFYPSDIAVEWESNGQPENNYKTTPPMLDSDGSFFLYSKLTVDKSRWQQGNVFSCSVMHEALHNHYTQKSLSLSPGK
light: DIQMTQSPSSLSASVGDRVTITCRASQDVSKYLAWYQQKPGKAPKLLIYAASSLQSGVPSRFSGSGSGTDFTLTISSLQPEDFATYYCQVYDSSPNAYVFGGGTKVEIKRTVAAPSVFIFPPSDEQLKSGTASVVCLLNNFYPREAKVQWKVDNALQSGNSQESVTEQDSKDSTYSLSSTLTLSKADYEKHKVYACEVTHQGLSSPVTKSFNRGEC
B2: AX1DG IgG2 (antibody, V domains shown)
VH: EVQLLESGGGLVQPGGSLRLSCKASGFTFTSYYMHWVRQAPGKGLEWIGRINPDSGSTKYNEKFKGRATISRDNSKNTLYLQMNSLRAEDTAVYYCARGGRLSWDFDVWGQGTLVTVSS
VL: DIQMTQSPSSLSASVGDRVTITCRASQDISRYLAWYQQKPGKAPKLLIYAASSLQSGVPSRFSGSGSGTDFTLTISSLQPEDFATYYCAAYDYSLGGYVFGGGTKVEIK
notes: IgG2; also called AXIDG

Columns and labels:
rhesus PCSK9 (rhesus) [1] = test: told with the LDL-uptake (Exopolar) assay
rhesus PCSK9 (rhesus) [2] = test: affinity measurement, IgG2

binding (rhesus PCSK9 (rhesus) [1])	binding (rhesus PCSK9 (rhesus) [2])	Binder
binds	–	B1
–	binds	B2

From patent US20120231005A1 (Merck Sharp & Dohme, published 2012)
